PubChem BioAssay AID504791, Drosophila RNAi Screening Center | 2011

Assay: 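Factors in Argonaute-based small RNA production and activity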 (primary screen)
Cells: Drosophila S2-derived reporter cells
Reagent: long dsRNA against Drosophila genes, about 150-250 ng dsRNA per well (siRNA assay); about 80-120 ng (miRNA assay)
Duration: about 5 days (siRNA assay); about 4 days (miRNA assay)
Challenge: copper sulfate induction of reporters: 25 µM (siRNA assay); 200 mM stated (miRNA assay), 1-2 days before reading
Detection: 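Dual luciferase assay: Renilla to firefly signal ratio in each well, scaled to the mean ratio of its plate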
Units: stable assay Renilla, run 1 in luminescence; stable assay firefly, run 1 in luminescence
Call rule: 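First-pass picks had plate-scaled ratios over 1.5 for the siRNA assay, over 1.6 for the miRNA assay, or under 0.6; two distinct dsRNAs had to score alike on retest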
The screen tested about 23,000 reagents; shown is an unselected part of those that have a named target and a result. Over the whole deposit, 199 (0.86%) are marked active. 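Plate-scaled ratios behind the calls are not deposited; printed light signals are raw; many rows marked increased or decreased are still called inactive.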 Reagents against one gene are numbered here. The record does not give: the direction of the score.

CG3216 | stable assay Renilla, run 1: 7155; stable assay firefly, run 1: 4.59e5; activity call: inactive
CG43316 #1 | stable assay Renilla, run 1: 5431; stable assay firefly, run 1: 3.13e5; activity call: inactive
CG43316 #2 | stable assay Renilla, run 1: 6943; stable assay firefly, run 1: 3.50e5; activity call: inactive
CG6325 | stable assay Renilla, run 1: 8757; stable assay firefly, run 1: 3.76e5; activity call: inactive
CG31706 | stable assay Renilla, run 1: 3432; stable assay firefly, run 1: 2.96e5; activity call: inactive
dve | stable assay Renilla, run 1: 7945; stable assay firefly, run 1: 5.78e5; activity call: inactive
CG31098 | stable assay Renilla, run 1: 7018; stable assay firefly, run 1: 2.63e5; activity call: inactive
Lectin-galC1 | stable assay Renilla, run 1: 7443; stable assay firefly, run 1: 3.66e5; activity call: inactive
Cp7Fc | stable assay Renilla, run 1: 5334; stable assay firefly, run 1: 3.11e5; activity call: inactive
CG7058 | stable assay Renilla, run 1: 5076; stable assay firefly, run 1: 4.17e5; activity call: inactive
CG31111 | stable assay Renilla, run 1: 8839; stable assay firefly, run 1: 3.59e5; activity call: inactive
CG9166 | stable assay Renilla, run 1: 8130; stable assay firefly, run 1: 4.45e5; activity call: inactive
RpL17 | stable assay Renilla, run 1: 8283; stable assay firefly, run 1: 3.34e5; activity call: inactive
Doc1 | stable assay Renilla, run 1: 5934; stable assay firefly, run 1: 4.77e5; activity call: inactive
CG8519 | stable assay Renilla, run 1: 6491; stable assay firefly, run 1: 4.16e5; activity call: inactive
Cpr47Eg | stable assay Renilla, run 1: 6311; stable assay firefly, run 1: 3.57e5; activity call: inactive
CG34136 | stable assay Renilla, run 1: 6494; stable assay firefly, run 1: 5.39e5; activity call: inactive
wtrw #1 | stable assay Renilla, run 1: 9329; stable assay firefly, run 1: 4.72e5; activity call: inactive
wtrw #2 | stable assay Renilla, run 1: 4264; stable assay firefly, run 1: 4.52e5; activity call: inactive
